# Results taken from paper PMC10012474.
# By UniProt entry, the sequences of proteins in these tests, tags left out.
# UniProt P70340: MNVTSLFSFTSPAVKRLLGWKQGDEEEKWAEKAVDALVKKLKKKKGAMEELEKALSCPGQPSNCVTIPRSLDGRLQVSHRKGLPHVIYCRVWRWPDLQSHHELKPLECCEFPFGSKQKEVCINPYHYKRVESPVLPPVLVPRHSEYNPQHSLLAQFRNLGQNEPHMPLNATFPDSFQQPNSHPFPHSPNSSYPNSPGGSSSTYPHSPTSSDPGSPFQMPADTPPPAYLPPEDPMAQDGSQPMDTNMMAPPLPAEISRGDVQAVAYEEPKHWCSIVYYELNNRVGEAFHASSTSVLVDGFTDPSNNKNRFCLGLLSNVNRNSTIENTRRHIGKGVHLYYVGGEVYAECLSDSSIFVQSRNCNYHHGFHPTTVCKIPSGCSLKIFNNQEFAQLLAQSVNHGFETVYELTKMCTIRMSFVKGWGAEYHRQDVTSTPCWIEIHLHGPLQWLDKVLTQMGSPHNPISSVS
# Results are given in words; binding and its absence hold for the method and conditions named. In cells and extracts the contact can be indirect. Some results given as binding are weak or reduced against the parent protein; the word gives no strength.
# T1: ubiquitin carboxyl-terminal hydrolase isozyme L3 (mouse (endogenous in BMSCs)) (UniProt Q9JKB1)
# T1 sequence: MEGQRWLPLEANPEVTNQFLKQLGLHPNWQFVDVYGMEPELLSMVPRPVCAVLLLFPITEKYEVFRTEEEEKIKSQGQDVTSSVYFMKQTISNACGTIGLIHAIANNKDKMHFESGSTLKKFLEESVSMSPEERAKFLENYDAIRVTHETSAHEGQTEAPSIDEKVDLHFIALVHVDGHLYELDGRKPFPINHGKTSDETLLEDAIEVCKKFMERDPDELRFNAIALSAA
# Assays:
# [1] = molecular target: T1, ubiquitin carboxyl-terminal hydrolase isozyme L3 (mouse (endogenous in BMSCs)); assay: co-IP; BMSC lysate in IP buffer, 1 mg total protein pre-cleared with protein-G agarose; 2 ug anti-UCHL3 or anti-SMAD1 antibody (IgG as negative control), 4 °C 2 h, then protein-G agarose overnight at 4 °C; Western blotting of the endogenous partner
# [2] = molecular target: mothers against decapentaplegic homologue 1 (mouse (endogenous in BMSCs)) (UniProt P70340); assay: as above
binding [1],binding [2],Molecule
binds,,mothers against decapentaplegic homologue 1 (from UniProt P70340 1-465)
,binds,"ubiquitin carboxyl-terminal hydrolase isozyme L3 (enzyme, UniProt Q9JKB1 1-230) MEGQRWLPLEANPEVTNQFLKQLGLHPNWQFVDVYGMEPELLSMVPRPVCAVLLLFPITEKYEVFRTEEEEKIKSQGQDVTSSVYFMKQTISNACGTIGLIHAIANNKDKMHFESGSTLKKFLEESVSMSPEERAKFLENYDAIRVTHETSAHEGQTEAPSIDEKVDLHFIALVHVDGHLYELDGRKPFPINHGKTSDETLLEDAIEVCKKFMERDPDELRFNAIALSAA"
